# At least one compound was matched to its structure with a doubt left.
# Amino acid sequences for entries named in this document (tags omitted).
# UniProt P28223, whole entry: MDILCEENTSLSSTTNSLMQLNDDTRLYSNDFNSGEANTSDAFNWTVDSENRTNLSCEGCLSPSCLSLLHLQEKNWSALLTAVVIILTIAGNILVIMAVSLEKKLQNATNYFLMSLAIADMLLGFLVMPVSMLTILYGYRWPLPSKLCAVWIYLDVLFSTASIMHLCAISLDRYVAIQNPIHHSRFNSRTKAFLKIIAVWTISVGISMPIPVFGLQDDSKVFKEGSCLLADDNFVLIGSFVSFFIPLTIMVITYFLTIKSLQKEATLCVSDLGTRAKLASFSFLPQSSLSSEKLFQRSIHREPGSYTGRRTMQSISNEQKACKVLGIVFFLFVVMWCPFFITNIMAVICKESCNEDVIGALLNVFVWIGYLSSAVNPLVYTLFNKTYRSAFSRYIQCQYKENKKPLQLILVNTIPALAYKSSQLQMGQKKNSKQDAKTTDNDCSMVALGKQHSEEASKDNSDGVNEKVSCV
# Experiments:
# [1] = single dose, cited from earlier work
# [2] = cited from earlier work
# [3] = biological target: T1, neocortical serotonin 5-HT2A receptors (Homo sapiens, UniProt P28223); settings: 25 mg oral dose; cited from earlier work
# T1 construct: host or cells: neocortex in vivo
# [4] = system: rat model of formalin (FML)-induced chronic pain; experiment: Hot Plate assay (HPA, 52.5° C.), thermal hyperalgesia, formalin-induced rat pain model; assay type: in vivo, Sprague Dawley rats; settings: acute, after 10 mg/kg intravenous psilocybin
# [5] = system: rat model of formalin (FML)-induced chronic pain; experiment: Von Frey assay (VFA), mechanical allodynia, formalin-induced rat pain model; assay type: in vivo, Sprague Dawley rats; settings: after 10 mg/kg intravenous psilocybin vs saline on day 1; contralateral and ipsilateral paw
# Description: This example describes the effects of intravenous administration of psychedelics on pain perception and diseases associated with pain, such as nociplastic pain, in an animal model of pain. A rat model of formalin (FML)-induced chronic pain was used to investigate the effect of psilocybin administration on mechanical allodynia and thermal hyperalgesia.
# Chronic pain in rats was induced by injection of formalin into the hind paw. The rats subsequently were intravenously administered psilocybin, and assessed for changes in pain perception over an extended period of time. […] The pain perception was measured in the contralateral and ipsilateral paws to assess the potential benefit of psychedelics (e.g., psilocybin) in nociplastic pain disorders. […]
# Adult male Sprague Dawley rats (300-350 g) were implanted with a catheter in the jugular vein for delivery of 10 mg/kg psilocybin or 0.9% saline. Mechanical allodynia was assessed using von Frey assay (VFA) and was expressed as the threshold in grams (g). Thermal hyperalgesia was measured as paw withdrawal latency in seconds (s) using the hot plate assay (HPA) (52.5° C.). After post-surgical recovery (7-10 days), baseline responses to mechanical and thermal stimuli were measured. […] Two hours after the formalin injection, paw withdrawal thresholds in response to mechanical and thermal stimuli were measured. […]
# Two types of pain perception were measured. […]
compound,measurement,setting,value
"CN(C)CCc1c[nH]c2cccc(OP(=O)(O)O)c12 [psilocybin, 3-[2-(dimethylamino)ethyl]-1H-indol-4-yl]dihydrogen phosphate]",patient-reported depression scores,[1]; after 1 week,improve patient-reported depression scores
same,persistence of improvement in patient-reported depression scores,[1],up to 6 months
same,onset of noticeable psychoactive effects,[2]; after a dose,one
same,peak of psychoactive effects,[2]; after a dose,about two
same,loss of noticeable effects,[2]; after administration,around six
same,occupancy of neocortical serotonin 5-HT2A receptors,[3],near-maximal occupancy
same,Hot Plate assay (HPA) withdrawal latency,[4],acute recovery response in withdrawal latency
same,Von Frey assay (VFA) withdrawal threshold,[5],marked and acute difference in withdrawal threshold
